Data taken from paper PMC8021557.

B1: RAD17 (endogenous, H1299 cells) (protein, UniProt O75943-2 1-670)
chain: MNQVTDWVDPSFDDFLECSGVSTITATSLGVNNSSHRRKNGPSTLESSRFPARKRGNLSSLEQIYGLENSKEYLSENEPWVDKYKPETQHELAVHKKKIEEVETWLKAQVLERQPKQGGSILLITGPPGCGKTTTLKILSKEHGIQVQEWINPVLPDFQKDDFKGMFNTESSFHMFPYQSQIAVFKEFLLRATKYNKLQMLGDDLRTDKKIILVEDLPNQFYRDSHTLHEVLRKYVRIGRCPLIFIISDSLSGDNNQRLLFPKEIQEECSISNISFNPVAPTIMMKFLNRIVTIEANKNGGKITVPDKTSLELLCQGCSGDIRSAINSLQFSSSKGENNLRPRKKGMSLKSDAVLSKSKRRKKPDRVFENQEVQAIGGKDVSLFLFRALGKILYCKRASLTELDSPRLPSHLSEYERDTLLVEPEEVVEMSHMPGDLFNLYLHQNYIDFFMEIDDIVRASEFLSFADILSGDWNTRSLLREYSTSIATRGVMHSNKARGYAHCQGGGSSFRPLHKPQWFLINKKYRENCLAAKALFPDFCLPALCLQTQLLPYLALLTIPMRNQAQISFIQDIGRLPLKRHFGRLKMEALTDREHGMIDPDSGDEAQLNGGHSAEESLGEPTQATVPETWSLPLSQNSASELPASQPQPFSAQGDMEENIIIEDYESDGT
B2: UPF1 (protein, UniProt Q92900 1-1129)
chain: MSVEAYGPSSQTLTFLDTEEAELLGADTQGSEFEFTDFTLPSQTQTPPGGPGGPGGGGAGGPGGAGAGAAAGQLDAQVGPEGILQNGAVDDSVAKTSQLLAELNFEEDEEDTYYTKDLPIHACSYCGIHDPACVVYCNTSKKWFCNGRGNTSGSHIVNHLVRAKCKEVTLHKDGPLGETVLECYNCGCRNVFLLGFIPAKADSVVVLLCRQPCASQSSLKDINWDSSQWQPLIQDRCFLSWLVKIPSEQEQLRARQITAQQINKLEELWKENPSATLEDLEKPGVDEEPQHVLLRYEDAYQYQNIFGPLVKLEADYDKKLKESQTQDNITVRWDLGLNKKRIAYFTLPKTDSGNEDLVIIWLRDMRLMQGDEICLRYKGDLAPLWKGIGHVIKVPDNYGDEIAIELRSSVGAPVEVTHNFQVDFVWKSTSFDRMQSALKTFAVDETSVSGYIYHKLLGHEVEDVIIKCQLPKRFTAQGLPDLNHSQVYAVKTVLQRPLSLIQGPPGTGKTVTSATIVYHLARQGNGPVLVCAPSNIAVDQLTEKIHQTGLKVVRLCAKSREAIDSPVSFLALHNQIRNMDSMPELQKLQQLKDETGELSSADEKRYRALKRTAERELLMNADVICCTCVGAGDPRLAKMQFRSILIDESTQATEPECMVPVVLGAKQLILVGDHCQLGPVVMCKKAAKAGLSQSLFERLVVLGIRPIRLQVQYRMHPALSAFPSNIFYEGSLQNGVTAADRVKKGFDFQWPQPDKPMFFYVTQGQEEIASSGTSYLNRTEAANVEKITTKLLKAGAKPDQIGIITPYEGQRSYLVQYMQFSGSLHTKLYQEVEIASVDAFQGREKDFIILSCVRANEHQGIGFLNDPRRLNVALTRARYGVIIVGNPKALSKQPLWNHLLNYYKEQKVLVEGPLNNLRESLMQFSKPRKLVNTINPGARFMTTAMYDAREAIIPGSVYDRSSQGRPSSMYFQTHDQIGMISAGPSHVAAMNIPIPFNLVMPPMPPPGYFGQANGPAAGRGTPKGKTGRGGRQKNRFGLPGPSQTNLPNSQASQDVASQPFSQGALTQGYISMSQPSQMSQPGLSQPELSQDSYLGDEFKSQIDVALSQDSTYQGERAYQHGGVTGLSQY
B3: SMG5 (protein, UniProt Q9UPR3 1-1016)
chain: MSQGPPTGESSEPEAKVLHTKRLYRAVVEAVHRLDLILCNKTAYQEVFKPENISLRNKLRELCVKLMFLHPVDYGRKAEELLWRKVYYEVIQLIKTNKKHIHSRSTLECAYRTHLVAGIGFYQHLLLYIQSHYQLELQCCIDWTHVTDPLIGCKKPVSASGKEMDWAQMACHRCLVYLGDLSRYQNELAGVDTELLAERFYYQALSVAPQIGMPFNQLGTLAGSKYYNVEAMYCYLRCIQSEVSFEGAYGNLKRLYDKAAKMYHQLKKCETRKLSPGKKRCKDIKRLLVNFMYLQSLLQPKSSSVDSELTSLCQSVLEDFNLCLFYLPSSPNLSLASEDEEEYESGYAFLPDLLIFQMVIICLMCVHSLERAGSKQYSAAIAFTLALFSHLVNHVNIRLQAELEEGENPVPAFQSDGTDEPESKEPVEKEEEPDPEPPPVTPQVGEGRKSRKFSRLSCLRRRRHPPKVGDDSDLSEGFESDSSHDSARASEGSDSGSDKSLEGGGTAFDAETDSEMNSQESRSDLEDMEEEEGTRSPTLEPPRGRSEAPDSLNGPLGPSEASIASNLQAMSTQMFQTKRCFRLAPTFSNLLLQPTTNPHTSASHRPCVNGDVDKPSEPASEEGSESEGSESSGRSCRNERSIQEKLQVLMAEGLLPAVKVFLDWLRTNPDLIIVCAQSSQSLWNRLSVLLNLLPAAGELQESGLALCPEVQDLLEGCELPDLPSSLLLPEDMALRNLPPLRAAHRRFNFDTDRPLLSTLEESVVRICCIRSFGHFIARLQGSILQFNPEVGIFVSIAQSEQESLLQQAQAQFRMAQEEARRNRLMRDMAQLRLQLEVSQLEGSLQQPKAQSAMSPYLVPDTQALCHHLPVIRQLATSGRFIVIIPRTVIDGLDLLKKEHPGARDGIRYLEAEFKKGNRYIRCQKEVGKSFERHKLKRQDADAWTLYKILDSCKQLTLAQGAGEEDPSGMVTIITGLPLDNPSVLSGPMQAALQAAAHASVDIKNVLDFYKQWKEIG

molecular target: T1, SMG7 containing N-terminal Flag and HA (hemagglutinin) tags (FH-SMG7), expressed in H1299 cells (human (cDNA from HCT116 cells)) (UniProt Q92540); assay: affinity purification with mass spectrometry; H1299-FH-SMG7 stable cells; extracts in BC100 buffer (20 mM Tris-HCl pH 7.9, 100 mM NaCl, 10% glycerol, 0.2 mM EDTA, 0.5% Triton X-100); tandem purification on α-Flag M2 agarose (Flag peptide elution) then α-HA agarose (HA peptide elution); mass spectrometry
T1 sequence: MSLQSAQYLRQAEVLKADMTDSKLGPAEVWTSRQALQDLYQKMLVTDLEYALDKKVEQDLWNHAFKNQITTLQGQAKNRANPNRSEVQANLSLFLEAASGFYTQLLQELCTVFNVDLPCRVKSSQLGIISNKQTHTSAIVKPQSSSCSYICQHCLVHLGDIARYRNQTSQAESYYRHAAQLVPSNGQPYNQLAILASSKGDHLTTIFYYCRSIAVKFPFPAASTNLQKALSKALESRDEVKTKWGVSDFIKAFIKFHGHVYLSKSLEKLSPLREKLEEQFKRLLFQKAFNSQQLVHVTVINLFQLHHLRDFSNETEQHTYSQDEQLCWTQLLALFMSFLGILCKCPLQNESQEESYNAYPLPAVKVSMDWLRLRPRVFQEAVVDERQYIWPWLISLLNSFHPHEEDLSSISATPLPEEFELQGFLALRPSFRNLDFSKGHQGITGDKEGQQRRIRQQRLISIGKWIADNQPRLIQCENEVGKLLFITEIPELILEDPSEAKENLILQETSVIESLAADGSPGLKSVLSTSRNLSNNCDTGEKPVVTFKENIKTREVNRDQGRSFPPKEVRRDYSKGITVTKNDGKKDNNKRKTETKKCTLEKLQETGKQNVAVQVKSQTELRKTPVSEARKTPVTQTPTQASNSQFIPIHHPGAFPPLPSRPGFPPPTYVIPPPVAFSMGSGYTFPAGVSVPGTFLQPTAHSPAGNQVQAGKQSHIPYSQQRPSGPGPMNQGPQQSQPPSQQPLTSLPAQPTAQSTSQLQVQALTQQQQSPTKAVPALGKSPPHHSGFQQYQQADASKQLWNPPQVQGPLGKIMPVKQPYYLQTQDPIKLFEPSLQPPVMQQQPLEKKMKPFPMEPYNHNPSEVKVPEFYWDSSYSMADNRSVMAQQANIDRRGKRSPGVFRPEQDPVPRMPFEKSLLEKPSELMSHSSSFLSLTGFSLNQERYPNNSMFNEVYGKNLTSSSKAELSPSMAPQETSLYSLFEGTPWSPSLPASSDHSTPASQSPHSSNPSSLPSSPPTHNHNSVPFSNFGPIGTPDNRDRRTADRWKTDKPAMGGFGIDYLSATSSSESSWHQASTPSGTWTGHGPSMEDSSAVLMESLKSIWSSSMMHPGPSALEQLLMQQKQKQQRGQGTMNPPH

Row | Binder | binding
1 | B1 | binds
2 | B2 | binds
3 | B3 | binds

These are yes or no findings as the source states them, for the method shown. In cells and extracts the contact can be indirect. Here binding means that the protein was enriched with, or labelled near, the bait; the list need not be complete. Tags and fused reporters may be left off the sequences shown.
